US11896600B2, “Composition and method of using eicosanoyl-5-hydroxytryptamide for treating neurodegenerative disorders” (Vidya Herbs, Inc., priority 2019, dated 2024)
Structures can show the parent of a compound that is named as a salt.

Tested on: brain tissue of scopolamine-induced mice
Assay: Histopathological examination of brain (H&E), healthy neurons in hippocampus
Assay type: in vivo, Swiss albino mice
Settings: donepezil 3 mg/kg p.o.; vs untreated amnesia mice, p<0.001

COc1cc2c(cc1OC)C(=O)C(CC1CCN(Cc3ccccc3)CC1)C2 (stereo not shown) [donepezil, donepezil hydrochloride]
number of healthy neurons in brain hippocampus region: significantly improved the healthy neurons
